Measured values: US20240358735A1, “THERAPEUTIC COMPOSITIONS AND RELATED METHODS” (BOYCE THOMPSON INSTITUTE FOR PLANT RESEARCH, INC., priority 2021, published 2024)

Legend:
C. elegans wildtype (N2) = experiment: Endo-metabolome of staged starved and fed cultures, targeted HPLC-HRMS; conditions: 24 hr starvation, C. elegans wildtype larval stages and adults
Cel-cest-1.2 mutants = experiment: Comparative metabolomics (HPLC-HRMS) of Cel-cest-1.2 mutants versus wildtype C. elegans (N2); conditions: for Cel-cest-1.2 fold over WT (N2), average of 4 repeats: abundance of the metabolite in Cel-cest-1.2 mutants compared to C. elegans wildtype (N2)
Cbr-cest-2 mutants = experiment: Comparative metabolomics (HPLC-HRMS) of Cbr-cest-2 mutants versus wildtype C. briggsae (AF16); conditions: relative to wildtype C. briggsae

SMILES	Cel-cest-1.2 fold over WT (N2), average of 4 repeats (Cel-cest-1.2 mutants)	also measured
O=P(O)(O)O[C@@H]1[C@@H](O)[C@H](n2ccc3ccccc32)O[C@H](CO)[C@H]1O [iglu #2]	–	abundance under starvation relative to fed conditions (in words) (C. elegans wildtype (N2)): reduced during starvation
NCC(O)c1ccc(C[C@@H]2O[C@H](COC(=O)c3ccc[nH]3)[C@@H](O)[C@H](OP(=O)(O)O)[C@H]2OC(=O)c2ccccc2N)cc1 (some centres unmarked) [oglu#1401]	0.01959	–
C/C=C(\C)C(=O)OC[C@H]1O[C@@H](OC(=O)c2ccc[nH]2)[C@H](OC(=O)c2ccccc2)[C@@H](OP(=O)(O)O)[C@@H]1O [pyglu#4]	0.007137	–
O=C(O[C@H]1[C@H](OC(=O)c2ccc[nH]2)O[C@H](CO)[C@@H](O)[C@@H]1OP(=O)(O)O)c1ccccc1 [pyglu#201]	0.001844	–
C[C@H](CCC(=O)O[C@H]1[C@H](Oc2ccc(CCN)cc2)O[C@H](CO)[C@@H](O)[C@@H]1OP(=O)(O)O)O[C@@H]1O[C@@H](C)[C@H](O)C[C@H]1O [tyglas #9]	–	biosynthesis in Cbr-cest-2 mutants (in words) (Cbr-cest-2 mutants): defective in the biosynthesis
CC(CCCCC(=O)OC1C(Oc2ccc(CCN)cc2)OC(COC(=O)c2ccccc2N)C(O)C1OP(=O)(O)O)OC1OC(C)C(O)CC1O (centres unmarked) [tyglas#1]	0.0008411	–
C[C@H](CC/C=C/C(=O)OC[C@H]1O[C@@H](Oc2ccc(CCN)cc2)[C@H](OC(=O)c2ccccc2N)[C@@H](OP(=O)(O)O)[C@@H]1O)O[C@@H]1O[C@@H](C)[C@H](O)C[C@H]1O [tyglas#7]	0.0007089	–
C[C@H](CC(=O)OC[C@H]1O[C@@H](Oc2ccc(CCN)cc2)[C@H](OC(=O)c2ccccc2N)[C@@H](OP(=O)(O)O)[C@@H]1O)O[C@@H]1O[C@@H](C)[C@H](O)C[C@H]1O [tyglas#11]	0.005787	–
C/C=C(\C)C(=O)O[C@H]1[C@H](Oc2ccc(CCN)cc2)O[C@H](CO)[C@@H](O)[C@@H]1OP(=O)(O)O [tyglu #701]	–	biosynthesis in Cbr-cest-2 mutants (in words) (Cbr-cest-2 mutants): Cbr-cest-2-dependent
NCCc1ccc(O[C@@H]2O[C@H](COC(=O)c3ccccc3N)[C@@H](O)[C@H](OP(=O)(O)O)[C@H]2O)cc1 [tyglu#2]	0.0003551	–
Nc1ccccc1C(=O)OC[C@H]1O[C@@H](NCCc2ccc(O)cc2)[C@H](OC(=O)c2ccccc2N)[C@@H](OP(=O)(O)O)[C@@H]1O [tyglu#4]	0.0004062	–
NCCc1ccc(O[C@@H]2O[C@H](COC(=O)c3ccccc3N)[C@@H](O)[C@H](OP(=O)(O)O)[C@H]2OC(=O)c2ccccn2)cc1 [tyglu#6]	0.000209	–
C/C=C(\C)C(=O)O[C@H]1[C@H](Oc2ccc(CCN)cc2)O[C@H](COC(=O)c2ccccc2N)[C@@H](O)[C@@H]1OP(=O)(O)O [tyglu#8]	0.0001168	–
CC(C)CC(=O)OC1C(Oc2ccc(CCN)cc2)OC(CO)C(O)C1OP(=O)(O)O (centres unmarked) [tyglu#9]	0.003042	–
NCCc1ccc(O[C@@H]2O[C@H](COC(=O)c3ccccc3N)[C@@H](O)[C@H](OP(=O)(O)O)[C@H]2OC(=O)Cc2ccccc2)cc1 [tyglu#12]	0.008818	–
CC(C)CC(=O)O[C@H]1[C@H](Oc2ccc(CCN)cc2)O[C@H](COC(=O)c2ccccc2N)[C@@H](O)[C@@H]1OP(=O)(O)O [tyglu#14]	0.0004346	–
NCCc1ccc(O[C@@H]2O[C@H](COC(=O)c3ccccc3N)[C@@H](O)[C@H](OP(=O)(O)O)[C@H]2OC(=O)c2ccccc2)cc1 [tyglu#16]	4.851E−05	–
C/C=C(\C)C(=O)OC[C@H]1O[C@@H](Oc2ccc(CCN)cc2)[C@H](OC(=O)c2ccc[nH]2)[C@@H](OP(=O)(O)O)[C@@H]1O [tyglu#19]	0.0003518	–

SMILES	Cel-cest-1.2 fold over WT (N2), average of 4 repeats (Cel-cest-1.2 mutants)	also measured
C/C=C(\C)C(=O)O[C@H]1[C@H](Oc2ccc(CCN)cc2)O[C@H](COC(=O)c2ccc[nH]2)[C@@H](O)[C@@H]1OP(=O)(O)O [tyglu#20]	0.0003518	–
CC(C)CC(=O)OC1C(Oc2ccc(CCN)cc2)OC(COC(=O)c2ccc[nH]2)C(O)C1OP(=O)(O)O (centres unmarked) [tyglu#22]	0.003217	–
NCCc1ccc(OC2OC(COC(=O)c3ccc[nH]3)C(O)C(OP(=O)(O)O)C2OC(=O)c2ccc[nH]2)cc1 (centres unmarked) [tyglu#24]	0.01672	–
NCCc1ccc(O[C@@H]2O[C@H](COC(=O)c3cccnc3)[C@@H](O)[C@H](OP(=O)(O)O)[C@H]2OC(=O)c2ccccc2)cc1 [tyglu#28]	0.0002055	–
NCCc1ccc(O[C@@H]2O[C@H](COC(=O)c3ccc[nH]3)[C@@H](O)[C@H](OP(=O)(O)O)[C@H]2OC(=O)c2cccnc2)cc1 [tyglu#30]	0.003195	–
NCCc1ccc(O[C@@H]2O[C@H](COC(=O)c3ccccc3)[C@@H](O)[C@H](OP(=O)(O)O)[C@H]2OC(=O)c2ccccc2)cc1 [tyglu#32]	0.007546	–
NCCc1ccc(O[C@@H]2O[C@H](COC(=O)c3ccc[nH]3)[C@@H](O)[C@H](OP(=O)(O)O)[C@H]2OC(=O)c2ccccc2N)cc1 [tyglu#34]	0.0003271	–
NCCc1ccc(O[C@@H]2O[C@H](COC(=O)c3ccc(O)cc3)[C@@H](O)[C@H](OP(=O)(O)O)[C@H]2OC(=O)c2ccccc2N)cc1 [tyglu#35]	0.001744	–
NCCc1ccc(O[C@@H]2O[C@H](COC(=O)c3ccccc3N)[C@@H](O)[C@H](OP(=O)(O)O)[C@H]2OC(=O)c2ccc(O)cc2)cc1 [tyglu#36]	0.001657	–
NCCc1ccc(O[C@@H]2O[C@H](COC(=O)Cc3ccc(O)cc3)[C@@H](O)[C@H](OP(=O)(O)O)[C@H]2OC(=O)c2ccccc2N)cc1 [tyglu#37]	0.01231	–
NCCc1ccc(O[C@@H]2O[C@H](COC(=O)/C=C/c3c[nH]cn3)[C@@H](O)[C@H](OP(=O)(O)O)[C@H]2OC(=O)c2ccccc2N)cc1 [tyglu#38]	0.001958	–
NCCc1ccc(OC2OC(COC(=O)c3ccccc3N)C(O)C(OP(=O)(O)O)C2OC(=O)C(N)Cc2ccccc2)cc1 (centres unmarked) [tyglu#42]	0.004349	–
CCCC(O)CC(=O)CC(=O)OC[C@H]1O[C@@H](Oc2ccc(CCN)cc2)[C@H](OC(=O)c2ccccc2N)[C@@H](OP(=O)(O)O)[C@@H]1O (some centres unmarked) [tyglu#45]	0.01914	–
CCC/C=C/C=C\C=C\C(=O)OC[C@H]1O[C@@H](Oc2ccc(CCN)cc2)[C@H](OC(=O)c2ccccc2N)[C@@H](OP(=O)(O)O)[C@@H]1O [tyglu#50]	0.008897	–
CC(C)CC(=O)OC[C@H]1O[C@@H](Oc2ccc(CCN)cc2)[C@H](OC(=O)c2ccccc2N)[C@@H](OP(=O)(O)O)[C@@H]1O [tyglu#52]	0.009508	–
NCCc1ccc(O[C@@H]2O[C@H](CO)[C@@H](O)[C@H](OP(=O)(O)O)[C@H]2OC(=O)c2ccc[nH]2)cc1 [tyglu#181]	0.001755	–
C[C@H](CCCCC(=O)O[C@@H]1[C@@H](OP(=O)(O)O)[C@H](O)[C@@H](CO)O[C@H]1n1c(=O)[nH]c(=O)c2[nH]c(=O)[nH]c21)O[C@@H]1O[C@@H](C)[C@H](O)C[C@H]1O [uglas #11]	–	production in the Cel-cest-1.2 mutant (in words) (Cel-cest-1.2 mutants; relative to wildtype C. elegans): not affected
